In the supplement of paper PMC6411743:
± gives the standard deviation of the averaged measurements. The list shows a part of the results, in another mix than the full data.

Protein sequences, listed by entry. Tags and fused reporters are not part of them. Lines headed by an entry give the natural chain unless they say otherwise; changes in a name come on top.
UniProt P62072: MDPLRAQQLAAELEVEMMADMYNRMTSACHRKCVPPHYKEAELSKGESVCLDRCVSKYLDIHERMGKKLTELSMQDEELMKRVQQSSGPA
UniProt P83876: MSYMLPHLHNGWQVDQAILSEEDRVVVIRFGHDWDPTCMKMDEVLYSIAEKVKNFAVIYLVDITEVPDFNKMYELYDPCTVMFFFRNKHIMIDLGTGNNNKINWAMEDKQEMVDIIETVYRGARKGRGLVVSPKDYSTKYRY
UniProt P84103: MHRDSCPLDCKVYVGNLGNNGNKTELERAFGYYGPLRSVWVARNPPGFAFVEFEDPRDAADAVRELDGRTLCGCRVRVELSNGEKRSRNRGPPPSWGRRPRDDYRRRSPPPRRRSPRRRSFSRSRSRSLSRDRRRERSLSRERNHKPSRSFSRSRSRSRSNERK
UniProt P62306, whole entry, looked up: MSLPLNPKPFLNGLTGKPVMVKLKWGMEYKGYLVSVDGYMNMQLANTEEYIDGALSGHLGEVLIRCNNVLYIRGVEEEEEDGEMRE
UniProt P60468, whole entry: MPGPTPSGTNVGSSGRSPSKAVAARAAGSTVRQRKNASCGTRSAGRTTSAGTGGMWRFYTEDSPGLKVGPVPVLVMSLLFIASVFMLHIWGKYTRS
UniProt Q02252: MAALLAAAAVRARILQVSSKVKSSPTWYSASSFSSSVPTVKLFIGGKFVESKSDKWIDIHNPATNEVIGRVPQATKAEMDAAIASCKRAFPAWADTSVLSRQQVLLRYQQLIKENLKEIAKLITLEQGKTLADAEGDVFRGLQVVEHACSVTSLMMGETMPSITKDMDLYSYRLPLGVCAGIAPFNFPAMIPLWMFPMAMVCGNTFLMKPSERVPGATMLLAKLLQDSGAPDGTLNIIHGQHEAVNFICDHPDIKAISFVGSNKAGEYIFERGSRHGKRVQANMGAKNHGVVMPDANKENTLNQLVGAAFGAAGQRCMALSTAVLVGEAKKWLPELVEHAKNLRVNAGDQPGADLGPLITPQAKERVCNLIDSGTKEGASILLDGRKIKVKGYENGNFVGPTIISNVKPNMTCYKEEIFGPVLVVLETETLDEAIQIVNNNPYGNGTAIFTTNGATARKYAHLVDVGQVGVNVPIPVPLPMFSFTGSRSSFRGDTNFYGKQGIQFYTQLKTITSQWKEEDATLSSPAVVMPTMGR
UniProt P62877, whole entry, looked up: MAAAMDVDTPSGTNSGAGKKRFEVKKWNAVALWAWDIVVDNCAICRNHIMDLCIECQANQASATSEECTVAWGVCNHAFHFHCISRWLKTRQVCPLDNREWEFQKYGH
UniProt P82909: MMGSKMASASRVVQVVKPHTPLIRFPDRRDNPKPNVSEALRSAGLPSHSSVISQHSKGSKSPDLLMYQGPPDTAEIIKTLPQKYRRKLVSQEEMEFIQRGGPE
UniProt P56182: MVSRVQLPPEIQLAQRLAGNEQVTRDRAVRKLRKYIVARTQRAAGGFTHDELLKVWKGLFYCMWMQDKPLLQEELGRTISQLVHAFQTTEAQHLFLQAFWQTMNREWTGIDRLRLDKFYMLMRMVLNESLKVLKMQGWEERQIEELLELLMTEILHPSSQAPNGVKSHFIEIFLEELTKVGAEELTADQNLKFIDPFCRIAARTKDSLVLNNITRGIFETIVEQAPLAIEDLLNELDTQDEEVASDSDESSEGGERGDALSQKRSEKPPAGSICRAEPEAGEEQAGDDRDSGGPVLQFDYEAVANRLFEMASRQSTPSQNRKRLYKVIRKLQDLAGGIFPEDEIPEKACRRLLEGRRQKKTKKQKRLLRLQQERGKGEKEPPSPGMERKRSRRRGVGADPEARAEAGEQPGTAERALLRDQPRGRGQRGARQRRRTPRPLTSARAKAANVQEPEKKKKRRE
UniProt P62942, whole entry: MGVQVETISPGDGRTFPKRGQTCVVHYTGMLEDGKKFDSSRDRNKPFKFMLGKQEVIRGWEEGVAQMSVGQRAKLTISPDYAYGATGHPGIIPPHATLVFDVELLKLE
UniProt Q00839, whole entry: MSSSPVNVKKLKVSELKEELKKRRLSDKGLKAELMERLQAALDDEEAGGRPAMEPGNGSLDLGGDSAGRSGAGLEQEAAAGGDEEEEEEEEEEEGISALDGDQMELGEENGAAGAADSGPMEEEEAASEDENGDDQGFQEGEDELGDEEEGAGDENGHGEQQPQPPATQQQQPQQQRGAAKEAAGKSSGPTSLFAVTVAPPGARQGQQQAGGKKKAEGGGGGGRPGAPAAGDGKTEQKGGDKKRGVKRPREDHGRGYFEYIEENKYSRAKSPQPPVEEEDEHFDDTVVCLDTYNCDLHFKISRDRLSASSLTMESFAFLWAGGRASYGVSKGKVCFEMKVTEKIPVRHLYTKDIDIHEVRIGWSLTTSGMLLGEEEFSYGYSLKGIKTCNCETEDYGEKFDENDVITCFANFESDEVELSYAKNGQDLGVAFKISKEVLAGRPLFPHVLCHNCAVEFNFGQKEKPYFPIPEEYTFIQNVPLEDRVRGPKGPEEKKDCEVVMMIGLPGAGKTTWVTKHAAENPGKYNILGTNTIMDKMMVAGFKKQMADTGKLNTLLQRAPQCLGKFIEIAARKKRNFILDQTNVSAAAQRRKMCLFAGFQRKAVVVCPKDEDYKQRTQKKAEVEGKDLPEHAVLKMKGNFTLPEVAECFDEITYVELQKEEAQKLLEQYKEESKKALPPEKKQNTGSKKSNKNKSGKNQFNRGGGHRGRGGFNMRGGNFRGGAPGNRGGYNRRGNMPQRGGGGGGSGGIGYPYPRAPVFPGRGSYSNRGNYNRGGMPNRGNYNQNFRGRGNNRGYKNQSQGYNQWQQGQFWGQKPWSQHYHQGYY
UniProt P61764, whole entry: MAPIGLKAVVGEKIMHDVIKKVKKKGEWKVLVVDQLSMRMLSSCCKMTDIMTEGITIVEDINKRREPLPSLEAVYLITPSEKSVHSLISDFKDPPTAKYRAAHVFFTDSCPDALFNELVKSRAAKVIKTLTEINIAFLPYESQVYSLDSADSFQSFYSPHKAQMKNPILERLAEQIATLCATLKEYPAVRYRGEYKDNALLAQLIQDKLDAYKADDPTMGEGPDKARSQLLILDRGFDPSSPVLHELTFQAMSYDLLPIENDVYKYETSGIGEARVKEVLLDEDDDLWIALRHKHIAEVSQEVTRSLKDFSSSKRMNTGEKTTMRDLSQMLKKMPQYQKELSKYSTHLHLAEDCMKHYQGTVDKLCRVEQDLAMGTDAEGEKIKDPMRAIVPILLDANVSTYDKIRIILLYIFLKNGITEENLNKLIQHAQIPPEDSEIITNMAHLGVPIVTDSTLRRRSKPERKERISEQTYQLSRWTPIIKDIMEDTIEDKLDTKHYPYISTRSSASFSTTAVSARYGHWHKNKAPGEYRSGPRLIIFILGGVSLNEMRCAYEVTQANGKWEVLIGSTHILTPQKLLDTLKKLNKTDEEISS
UniProt Q07817, whole entry: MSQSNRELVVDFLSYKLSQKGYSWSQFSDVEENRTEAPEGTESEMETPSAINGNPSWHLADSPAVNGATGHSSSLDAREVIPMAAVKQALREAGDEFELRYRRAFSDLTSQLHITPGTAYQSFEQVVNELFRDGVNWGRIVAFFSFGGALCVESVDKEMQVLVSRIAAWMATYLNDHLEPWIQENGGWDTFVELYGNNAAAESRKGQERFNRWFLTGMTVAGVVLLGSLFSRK
UniProt P61604, whole entry: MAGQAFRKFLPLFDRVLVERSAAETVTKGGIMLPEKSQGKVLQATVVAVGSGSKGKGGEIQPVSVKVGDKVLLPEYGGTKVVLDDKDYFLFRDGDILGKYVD
UniProt P62312: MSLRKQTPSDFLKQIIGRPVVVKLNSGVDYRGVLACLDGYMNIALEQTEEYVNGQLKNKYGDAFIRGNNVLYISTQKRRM
UniProt Q07065: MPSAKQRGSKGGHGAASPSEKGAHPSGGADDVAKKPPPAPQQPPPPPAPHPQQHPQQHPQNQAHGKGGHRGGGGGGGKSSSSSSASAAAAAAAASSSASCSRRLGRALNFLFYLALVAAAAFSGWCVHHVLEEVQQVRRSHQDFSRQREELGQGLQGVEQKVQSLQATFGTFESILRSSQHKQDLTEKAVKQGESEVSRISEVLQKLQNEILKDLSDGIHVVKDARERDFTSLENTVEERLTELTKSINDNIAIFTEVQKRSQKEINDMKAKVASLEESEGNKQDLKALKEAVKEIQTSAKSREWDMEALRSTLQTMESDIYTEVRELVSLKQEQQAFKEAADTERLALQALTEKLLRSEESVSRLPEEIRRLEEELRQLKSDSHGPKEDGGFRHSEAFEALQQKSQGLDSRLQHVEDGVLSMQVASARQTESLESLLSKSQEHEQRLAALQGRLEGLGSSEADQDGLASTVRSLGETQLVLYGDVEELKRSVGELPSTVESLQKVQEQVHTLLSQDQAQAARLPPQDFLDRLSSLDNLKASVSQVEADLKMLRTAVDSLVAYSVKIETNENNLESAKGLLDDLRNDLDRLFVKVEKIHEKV
UniProt Q06210: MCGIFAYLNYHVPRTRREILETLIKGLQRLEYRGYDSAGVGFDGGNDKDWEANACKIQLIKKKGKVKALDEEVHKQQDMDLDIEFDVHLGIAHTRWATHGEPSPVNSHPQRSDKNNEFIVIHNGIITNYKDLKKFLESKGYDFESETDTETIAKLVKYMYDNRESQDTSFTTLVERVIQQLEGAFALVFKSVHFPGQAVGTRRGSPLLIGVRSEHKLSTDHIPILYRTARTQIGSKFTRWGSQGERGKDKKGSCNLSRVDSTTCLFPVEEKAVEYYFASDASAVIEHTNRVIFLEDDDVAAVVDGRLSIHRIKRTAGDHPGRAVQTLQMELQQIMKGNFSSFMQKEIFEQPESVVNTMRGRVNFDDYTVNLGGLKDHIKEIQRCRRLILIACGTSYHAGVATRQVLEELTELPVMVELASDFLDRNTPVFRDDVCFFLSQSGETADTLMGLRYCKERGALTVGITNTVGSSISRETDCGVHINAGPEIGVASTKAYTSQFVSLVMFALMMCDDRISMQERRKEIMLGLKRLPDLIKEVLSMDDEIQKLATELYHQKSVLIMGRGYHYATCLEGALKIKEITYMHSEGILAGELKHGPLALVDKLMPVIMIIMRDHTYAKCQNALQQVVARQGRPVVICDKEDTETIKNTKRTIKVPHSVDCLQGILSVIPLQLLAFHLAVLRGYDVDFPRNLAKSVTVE
UniProt P78540: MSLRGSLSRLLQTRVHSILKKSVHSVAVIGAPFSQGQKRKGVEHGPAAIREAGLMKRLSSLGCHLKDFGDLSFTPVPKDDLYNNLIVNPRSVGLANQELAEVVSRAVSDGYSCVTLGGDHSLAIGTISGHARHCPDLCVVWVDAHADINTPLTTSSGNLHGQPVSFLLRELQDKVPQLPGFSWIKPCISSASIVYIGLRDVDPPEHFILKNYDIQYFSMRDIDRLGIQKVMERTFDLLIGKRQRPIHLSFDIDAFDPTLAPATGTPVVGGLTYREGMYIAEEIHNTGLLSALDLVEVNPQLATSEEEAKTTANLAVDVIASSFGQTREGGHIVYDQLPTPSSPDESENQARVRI
UniProt P61981: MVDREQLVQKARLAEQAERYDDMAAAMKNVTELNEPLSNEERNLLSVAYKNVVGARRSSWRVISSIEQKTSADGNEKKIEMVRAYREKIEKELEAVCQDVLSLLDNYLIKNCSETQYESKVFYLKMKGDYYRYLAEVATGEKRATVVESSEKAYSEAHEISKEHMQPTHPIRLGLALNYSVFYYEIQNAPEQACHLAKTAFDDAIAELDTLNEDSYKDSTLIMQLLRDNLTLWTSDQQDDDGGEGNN
UniProt P78536: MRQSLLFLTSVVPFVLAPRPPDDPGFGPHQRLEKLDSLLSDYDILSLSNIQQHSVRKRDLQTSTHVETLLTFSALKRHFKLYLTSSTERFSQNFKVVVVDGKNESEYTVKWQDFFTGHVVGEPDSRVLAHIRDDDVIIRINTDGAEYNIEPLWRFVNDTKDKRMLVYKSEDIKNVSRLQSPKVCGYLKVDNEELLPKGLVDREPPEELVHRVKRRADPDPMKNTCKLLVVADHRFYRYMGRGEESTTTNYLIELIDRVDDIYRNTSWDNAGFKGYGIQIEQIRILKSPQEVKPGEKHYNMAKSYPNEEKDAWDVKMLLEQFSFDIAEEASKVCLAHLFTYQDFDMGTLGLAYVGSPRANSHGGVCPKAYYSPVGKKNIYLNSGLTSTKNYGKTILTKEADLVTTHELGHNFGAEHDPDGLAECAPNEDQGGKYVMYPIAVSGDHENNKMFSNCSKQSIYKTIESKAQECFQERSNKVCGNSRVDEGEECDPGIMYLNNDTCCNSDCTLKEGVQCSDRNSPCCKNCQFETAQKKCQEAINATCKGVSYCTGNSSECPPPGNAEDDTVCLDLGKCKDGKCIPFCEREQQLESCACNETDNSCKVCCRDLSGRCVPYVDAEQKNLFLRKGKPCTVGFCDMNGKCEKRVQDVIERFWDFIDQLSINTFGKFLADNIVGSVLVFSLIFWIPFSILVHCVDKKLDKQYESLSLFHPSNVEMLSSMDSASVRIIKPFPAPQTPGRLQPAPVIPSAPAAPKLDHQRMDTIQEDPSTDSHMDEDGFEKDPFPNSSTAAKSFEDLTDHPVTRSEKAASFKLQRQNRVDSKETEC

Compound: Nc1ncnc2c1ncn2[C@@H]1O[C@H](COP(=O)(O)OP(=O)(O)NP(=O)(O)O)[C@@H](O)[C@H]1O [adenylyl imidodiphosphate]
Experiment: NP40-soluble protein abundance relative to vehicle (solubility fold change) (ratio); higher = more soluble protein in presence of AMP-PNP
Summary of the method: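 Each value is a fold change relative to the detergent-processed vehicle, calculated per replicate from vsn-normalised intensities. Jurkat crude lysate received eight concentrations (0.1 to 10 mM) for 10 min at room temperature and 3 min at 37 °C, then was solubilised in 0.8% NP40 with benzonase (60 min, 4 °C). The ultracentrifuged supernatant was TMT-labelled and run by LC-MS/MS in three independent experiments.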

Target	NP40-soluble protein abundance (concentration: 1mM)	NP40-soluble protein abundance (concentration: 2mM)	NP40-soluble protein abundance (concentration: 4mM)	NP40-soluble protein abundance (concentration: 6mM)	NP40-soluble protein abundance (concentration: 8mM)	NP40-soluble protein abundance (concentration: 10mM)
UniProt P62330	0.981 ± 0.088	0.917 ± 0.021	1.01 ± 0.024	0.971 ± 0.051	1.06 ± 0.049	0.982 ± 0.04
UniProt P62072	1.01 ± 0.027	1.05 ± 0.074	0.957 ± 0.014	0.891 ± 0.046	0.86 ± 0.032	0.886 ± 0.019
UniProt P62258	0.989 ± 0.01	1.04 ± 0.063	0.988 ± 0.025	1.05 ± 0.069	1.03 ± 0.061	1 ± 0.074
UniProt P83876	1.02 ± 0.031	0.969 ± 0.019	0.964 ± 0.023	1.02 ± 0.032	1.01 ± 0.016	1.02 ± 0.013
UniProt P84103 and related entries	1.02 ± 0.034	1.09 ± 0.12	1.07 ± 0.028	1.11 ± 0.052	1.1 ± 0.095	1.15 ± 0.12
UniProt P62306	1.01 ± 0.037	1.08 ± 0.083	1.03 ± 0.045	1.1 ± 0.042	1.14 ± 0.049	1.16 ± 0.058
UniProt P82912 and related entries	1.02 ± 0.088	1.04 ± 0.073	1 ± 0.11	0.99 ± 0.12	0.994 ± 0.12	1.03 ± 0.14
SEC61B (UniProt P60468)	0.99 ± 0.032	1.09 ± 0.096	1.07 ± 0.046	1.08 ± 0.089	1.06 ± 0.089	1.1 ± 0.092
ALDH6A1 (UniProt Q02252)	0.983 ± 0.033	0.938 ± 0.029	0.961 ± 0.026	0.993 ± 0.041	0.99 ± 0.032	0.967 ± 0.024
UniProt P62877	0.968 ± 0.042	0.99 ± 0.043	0.972 ± 0.069	1.02 ± 0.065	1.01 ± 0.035	1.03 ± 0.075
MRPS36 (UniProt P82909)	1.01 ± 0.027	1 ± 0.023	1.01 ± 0.035	0.973 ± 0.046	0.977 ± 0.031	1.01 ± 0.026
UniProt P61244 and related entries	0.897 ± 0.059	0.921 ± 0.018	0.883 ± 0.06	0.86 ± 0.043	0.851 ± 0.078	0.86 ± 0.048
RRP1 (UniProt P56182)	1.023 ± 0.0035	1.07 ± 0.11	1.04 ± 0.027	1.03 ± 0.041	1.01 ± 0.018	1.05 ± 0.053
UniProt P62277	0.9222 ± 0.0085	0.882 ± 0.048	0.901 ± 0.083	0.895 ± 0.038	0.829 ± 0.094	0.897 ± 0.13
FKBP1A (UniProt P62942)	1.01 ± 0.021	1.12 ± 0.027	1.02 ± 0.04	1.02 ± 0.039	0.994 ± 0.034	1.01 ± 0.064
UniProt P61086 and related entries	0.979 ± 0.049	0.948 ± 0.032	0.962 ± 0.05	0.953 ± 0.025	0.975 ± 0.055	0.938 ± 0.066
UniProt Q00839 and related entries	1.03 ± 0.11	1.02 ± 0.075	1.01 ± 0.17	1.01 ± 0.17	1.03 ± 0.22	0.981 ± 0.14
CSTF1 (UniProt Q05048)	0.9781 ± 0.0088	0.931 ± 0.075	1 ± 0.015	1 ± 0.015	1.069 ± 0.0036	1.02 ± 0.046

Target	NP40-soluble protein abundance (concentration: 1mM)	NP40-soluble protein abundance (concentration: 2mM)	NP40-soluble protein abundance (concentration: 4mM)	NP40-soluble protein abundance (concentration: 6mM)	NP40-soluble protein abundance (concentration: 8mM)	NP40-soluble protein abundance (concentration: 10mM)
UniProt P62875	0.923 ± 0.058	0.924 ± 0.041	0.948 ± 0.1	1.04 ± 0.072	1.02 ± 0.052	0.995 ± 0.099
UniProt P61764 and related entries	0.982 ± 0.027	0.951 ± 0.056	0.9859 ± 0.0094	0.9765 ± 0.0046	0.998 ± 0.023	0.966 ± 0.017
UniProt Q07817 and related entries	1 ± 0.024	1.03 ± 0.046	1.02 ± 0.019	0.958 ± 0.025	0.98 ± 0.016	0.96 ± 0.053
MRPS6 (UniProt P82932)	0.979 ± 0.026	1 ± 0.045	0.959 ± 0.007	0.984 ± 0.06	0.998 ± 0.052	0.959 ± 0.034
UniProt P62249	0.995 ± 0.061	0.929 ± 0.1	0.962 ± 0.12	0.891 ± 0.079	0.858 ± 0.056	0.915 ± 0.13
UniProt P61604 and related entries	0.956 ± 0.091	1.04 ± 0.054	0.973 ± 0.04	0.901 ± 0.016	0.884 ± 0.033	0.916 ± 0.036
MRPS15 (UniProt P82914)	0.976 ± 0.027	1.01 ± 0.042	0.968 ± 0.085	0.995 ± 0.091	0.976 ± 0.12	0.983 ± 0.14
UniProt P62312	0.949 ± 0.039	0.997 ± 0.066	0.995 ± 0.1	1.1 ± 0.11	1.11 ± 0.061	1.13 ± 0.086
UniProt P62913 and related entries	0.991 ± 0.085	0.968 ± 0.056	0.916 ± 0.068	0.909 ± 0.084	0.845 ± 0.035	0.96 ± 0.15
CKAP4 (UniProt Q07065)	1.03 ± 0.016	1.09 ± 0.035	1.08 ± 0.024	1.09 ± 0.031	1.06 ± 0.017	1.079 ± 0.0084
UniProt P78527	0.9898 ± 0.0037	0.885 ± 0.13	0.966 ± 0.08	0.954 ± 0.048	1.01 ± 0.096	0.935 ± 0.12
UniProt Q06210 and related entries	0.972 ± 0.029	0.895 ± 0.093	0.951 ± 0.027	0.985 ± 0.037	1.02 ± 0.038	0.945 ± 0.029
ARG2 (UniProt P78540)	0.983 ± 0.026	1.02 ± 0.033	1.02 ± 0.033	1.01 ± 0.027	0.997 ± 0.019	0.985 ± 0.038
UniProt P61981	0.959 ± 0.052	1.05 ± 0.081	0.933 ± 0.056	0.976 ± 0.05	0.954 ± 0.053	0.921 ± 0.052
UniProt P62701	0.95 ± 0.063	0.87 ± 0.091	0.879 ± 0.11	0.873 ± 0.065	0.821 ± 0.071	0.851 ± 0.13
ARF3 (UniProt P61204)	0.951 ± 0.046	0.854 ± 0.12	0.999 ± 0.027	1.04 ± 0.11	1.12 ± 0.12	1.05 ± 0.034
ADAM17 (UniProt P78536)	1.005 ± 0.0059	1.03 ± 0.061	0.983 ± 0.026	0.973 ± 0.043	0.964 ± 0.036	0.987 ± 0.023

In another format: entries from further up.
Target | NP40-soluble protein abundance (concentration: 1mM) | NP40-soluble protein abundance (concentration: 2mM) | NP40-soluble protein abundance (concentration: 4mM) | NP40-soluble protein abundance (concentration: 6mM) | NP40-soluble protein abundance (concentration: 8mM) | NP40-soluble protein abundance (concentration: 10mM)
UniProt P62875 | 0.923 ± 0.058 | 0.924 ± 0.041 | 0.948 ± 0.1 | 1.04 ± 0.072 | 1.02 ± 0.052 | 0.995 ± 0.099
UniProt Q07817 and related entries | 1 ± 0.024 | 1.03 ± 0.046 | 1.02 ± 0.019 | 0.958 ± 0.025 | 0.98 ± 0.016 | 0.96 ± 0.053
UniProt P62913 and related entries | 0.991 ± 0.085 | 0.968 ± 0.056 | 0.916 ± 0.068 | 0.909 ± 0.084 | 0.845 ± 0.035 | 0.96 ± 0.15
UniProt P62701 | 0.95 ± 0.063 | 0.87 ± 0.091 | 0.879 ± 0.11 | 0.873 ± 0.065 | 0.821 ± 0.071 | 0.851 ± 0.13
ARF3 (UniProt P61204) | 0.951 ± 0.046 | 0.854 ± 0.12 | 0.999 ± 0.027 | 1.04 ± 0.11 | 1.12 ± 0.12 | 1.05 ± 0.034
ADAM17 (UniProt P78536) | 1.005 ± 0.0059 | 1.03 ± 0.061 | 0.983 ± 0.026 | 0.973 ± 0.043 | 0.964 ± 0.036 | 0.987 ± 0.023
